Measured values: doi:10.1101/2025.11.17.688764
No constants are given. Whether binding was seen depends on the method and setting. Some entries that bind do so weakly or less than the wild type. For part of these data: Tags and fused reporters may be left off the sequences shown.

Sequences of proteins named here, by UniProt entry; tags and fusion partners are left off.
UniProt Q6KC79: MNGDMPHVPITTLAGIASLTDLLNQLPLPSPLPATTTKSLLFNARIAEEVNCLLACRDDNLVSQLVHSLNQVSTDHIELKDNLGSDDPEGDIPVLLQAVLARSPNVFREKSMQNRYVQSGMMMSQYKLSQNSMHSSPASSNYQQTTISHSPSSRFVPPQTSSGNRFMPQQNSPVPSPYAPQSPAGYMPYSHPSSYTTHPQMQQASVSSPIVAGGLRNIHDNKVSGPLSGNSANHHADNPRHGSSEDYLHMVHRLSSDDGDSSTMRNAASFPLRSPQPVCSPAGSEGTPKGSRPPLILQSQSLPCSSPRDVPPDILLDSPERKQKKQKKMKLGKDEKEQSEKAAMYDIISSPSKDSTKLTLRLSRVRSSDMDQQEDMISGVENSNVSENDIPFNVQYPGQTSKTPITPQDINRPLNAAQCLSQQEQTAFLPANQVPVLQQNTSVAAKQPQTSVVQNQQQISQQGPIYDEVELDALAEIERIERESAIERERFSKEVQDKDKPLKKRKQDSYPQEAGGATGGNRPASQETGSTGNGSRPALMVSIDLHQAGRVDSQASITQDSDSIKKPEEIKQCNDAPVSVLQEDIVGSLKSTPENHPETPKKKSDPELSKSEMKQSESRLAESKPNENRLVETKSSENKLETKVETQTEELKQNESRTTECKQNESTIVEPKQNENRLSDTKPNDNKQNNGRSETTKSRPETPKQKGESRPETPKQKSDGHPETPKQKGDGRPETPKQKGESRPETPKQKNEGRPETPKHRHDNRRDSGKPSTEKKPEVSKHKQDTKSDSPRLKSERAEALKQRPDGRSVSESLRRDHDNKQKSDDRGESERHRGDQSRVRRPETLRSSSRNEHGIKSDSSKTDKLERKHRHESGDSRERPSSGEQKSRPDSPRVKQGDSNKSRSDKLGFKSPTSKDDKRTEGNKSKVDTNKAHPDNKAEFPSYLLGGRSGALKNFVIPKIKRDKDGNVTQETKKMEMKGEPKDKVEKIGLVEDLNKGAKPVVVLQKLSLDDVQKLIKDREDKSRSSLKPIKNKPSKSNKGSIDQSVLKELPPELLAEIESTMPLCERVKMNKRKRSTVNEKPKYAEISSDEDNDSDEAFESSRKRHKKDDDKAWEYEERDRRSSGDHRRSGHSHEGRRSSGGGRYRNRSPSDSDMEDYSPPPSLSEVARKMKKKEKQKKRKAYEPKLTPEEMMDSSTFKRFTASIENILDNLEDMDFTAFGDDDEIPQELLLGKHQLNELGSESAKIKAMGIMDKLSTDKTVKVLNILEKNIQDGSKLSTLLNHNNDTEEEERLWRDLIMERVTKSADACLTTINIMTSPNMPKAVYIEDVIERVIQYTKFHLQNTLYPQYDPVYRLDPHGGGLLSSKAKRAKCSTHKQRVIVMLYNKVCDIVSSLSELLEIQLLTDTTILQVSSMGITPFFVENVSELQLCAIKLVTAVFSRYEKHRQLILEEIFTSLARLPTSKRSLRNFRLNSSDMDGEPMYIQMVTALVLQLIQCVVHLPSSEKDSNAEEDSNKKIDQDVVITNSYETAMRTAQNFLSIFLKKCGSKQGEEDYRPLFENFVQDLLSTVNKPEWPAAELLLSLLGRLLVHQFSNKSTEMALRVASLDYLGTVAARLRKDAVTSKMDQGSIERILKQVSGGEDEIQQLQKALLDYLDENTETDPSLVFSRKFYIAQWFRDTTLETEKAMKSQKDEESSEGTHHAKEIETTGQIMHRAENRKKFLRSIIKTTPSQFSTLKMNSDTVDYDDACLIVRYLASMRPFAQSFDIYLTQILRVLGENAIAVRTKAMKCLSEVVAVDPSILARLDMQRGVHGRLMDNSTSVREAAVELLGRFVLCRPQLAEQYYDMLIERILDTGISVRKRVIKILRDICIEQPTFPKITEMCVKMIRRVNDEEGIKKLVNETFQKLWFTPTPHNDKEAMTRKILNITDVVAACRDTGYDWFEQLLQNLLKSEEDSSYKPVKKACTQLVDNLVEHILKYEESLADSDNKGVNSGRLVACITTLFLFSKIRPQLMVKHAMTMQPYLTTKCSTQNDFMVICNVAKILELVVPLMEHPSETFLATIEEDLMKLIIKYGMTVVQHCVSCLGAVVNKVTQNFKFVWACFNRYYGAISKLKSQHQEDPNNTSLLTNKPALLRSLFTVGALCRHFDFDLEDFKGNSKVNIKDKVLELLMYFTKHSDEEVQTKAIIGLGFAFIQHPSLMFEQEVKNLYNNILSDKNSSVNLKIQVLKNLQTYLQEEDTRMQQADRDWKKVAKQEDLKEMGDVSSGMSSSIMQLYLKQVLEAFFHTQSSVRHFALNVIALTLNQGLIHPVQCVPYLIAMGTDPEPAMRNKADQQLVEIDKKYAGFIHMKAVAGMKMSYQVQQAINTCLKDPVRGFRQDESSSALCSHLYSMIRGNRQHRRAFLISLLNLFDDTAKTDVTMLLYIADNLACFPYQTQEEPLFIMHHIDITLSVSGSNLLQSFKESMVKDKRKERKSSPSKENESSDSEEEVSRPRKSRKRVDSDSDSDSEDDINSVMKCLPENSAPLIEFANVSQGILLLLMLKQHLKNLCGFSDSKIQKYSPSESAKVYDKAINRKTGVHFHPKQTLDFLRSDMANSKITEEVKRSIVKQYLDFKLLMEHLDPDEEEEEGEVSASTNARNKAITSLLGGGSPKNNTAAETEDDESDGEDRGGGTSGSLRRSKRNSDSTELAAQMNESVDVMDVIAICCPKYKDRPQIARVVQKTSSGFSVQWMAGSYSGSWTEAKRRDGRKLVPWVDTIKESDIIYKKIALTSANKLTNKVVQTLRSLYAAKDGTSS
UniProt Q9UQE7: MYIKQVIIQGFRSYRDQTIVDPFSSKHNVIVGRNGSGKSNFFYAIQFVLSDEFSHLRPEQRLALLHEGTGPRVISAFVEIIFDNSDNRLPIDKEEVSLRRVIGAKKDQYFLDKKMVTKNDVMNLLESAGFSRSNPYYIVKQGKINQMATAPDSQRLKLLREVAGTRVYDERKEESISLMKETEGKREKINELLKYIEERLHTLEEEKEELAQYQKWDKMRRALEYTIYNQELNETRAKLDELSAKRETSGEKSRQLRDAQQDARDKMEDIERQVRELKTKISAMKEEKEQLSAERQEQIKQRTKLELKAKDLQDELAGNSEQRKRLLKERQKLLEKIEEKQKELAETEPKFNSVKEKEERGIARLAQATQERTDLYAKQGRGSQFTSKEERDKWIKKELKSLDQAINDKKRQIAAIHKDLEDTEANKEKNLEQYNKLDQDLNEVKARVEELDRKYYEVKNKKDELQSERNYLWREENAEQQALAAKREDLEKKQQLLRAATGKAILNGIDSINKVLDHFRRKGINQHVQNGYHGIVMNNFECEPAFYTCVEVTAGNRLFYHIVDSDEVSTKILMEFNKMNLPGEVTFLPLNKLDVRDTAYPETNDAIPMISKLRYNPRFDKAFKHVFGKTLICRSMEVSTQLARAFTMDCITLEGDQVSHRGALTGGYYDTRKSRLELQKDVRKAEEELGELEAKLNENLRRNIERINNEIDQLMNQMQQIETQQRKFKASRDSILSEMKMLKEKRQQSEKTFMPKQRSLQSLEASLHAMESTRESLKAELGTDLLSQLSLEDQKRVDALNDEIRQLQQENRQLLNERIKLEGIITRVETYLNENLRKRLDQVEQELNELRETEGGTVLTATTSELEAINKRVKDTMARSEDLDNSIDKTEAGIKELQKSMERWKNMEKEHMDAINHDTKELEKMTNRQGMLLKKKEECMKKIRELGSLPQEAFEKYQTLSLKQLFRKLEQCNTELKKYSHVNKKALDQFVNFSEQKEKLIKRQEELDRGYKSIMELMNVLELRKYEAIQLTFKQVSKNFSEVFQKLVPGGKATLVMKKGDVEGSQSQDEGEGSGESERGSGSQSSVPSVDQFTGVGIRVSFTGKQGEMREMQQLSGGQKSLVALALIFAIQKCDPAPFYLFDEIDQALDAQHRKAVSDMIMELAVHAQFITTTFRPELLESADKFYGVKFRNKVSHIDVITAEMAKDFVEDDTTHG

Key:
Assay in all cases: co-purification
[1] = target: T1, 10×His-tagged STAG1 (human) (UniProt Q8WVM7)
T1 sequence: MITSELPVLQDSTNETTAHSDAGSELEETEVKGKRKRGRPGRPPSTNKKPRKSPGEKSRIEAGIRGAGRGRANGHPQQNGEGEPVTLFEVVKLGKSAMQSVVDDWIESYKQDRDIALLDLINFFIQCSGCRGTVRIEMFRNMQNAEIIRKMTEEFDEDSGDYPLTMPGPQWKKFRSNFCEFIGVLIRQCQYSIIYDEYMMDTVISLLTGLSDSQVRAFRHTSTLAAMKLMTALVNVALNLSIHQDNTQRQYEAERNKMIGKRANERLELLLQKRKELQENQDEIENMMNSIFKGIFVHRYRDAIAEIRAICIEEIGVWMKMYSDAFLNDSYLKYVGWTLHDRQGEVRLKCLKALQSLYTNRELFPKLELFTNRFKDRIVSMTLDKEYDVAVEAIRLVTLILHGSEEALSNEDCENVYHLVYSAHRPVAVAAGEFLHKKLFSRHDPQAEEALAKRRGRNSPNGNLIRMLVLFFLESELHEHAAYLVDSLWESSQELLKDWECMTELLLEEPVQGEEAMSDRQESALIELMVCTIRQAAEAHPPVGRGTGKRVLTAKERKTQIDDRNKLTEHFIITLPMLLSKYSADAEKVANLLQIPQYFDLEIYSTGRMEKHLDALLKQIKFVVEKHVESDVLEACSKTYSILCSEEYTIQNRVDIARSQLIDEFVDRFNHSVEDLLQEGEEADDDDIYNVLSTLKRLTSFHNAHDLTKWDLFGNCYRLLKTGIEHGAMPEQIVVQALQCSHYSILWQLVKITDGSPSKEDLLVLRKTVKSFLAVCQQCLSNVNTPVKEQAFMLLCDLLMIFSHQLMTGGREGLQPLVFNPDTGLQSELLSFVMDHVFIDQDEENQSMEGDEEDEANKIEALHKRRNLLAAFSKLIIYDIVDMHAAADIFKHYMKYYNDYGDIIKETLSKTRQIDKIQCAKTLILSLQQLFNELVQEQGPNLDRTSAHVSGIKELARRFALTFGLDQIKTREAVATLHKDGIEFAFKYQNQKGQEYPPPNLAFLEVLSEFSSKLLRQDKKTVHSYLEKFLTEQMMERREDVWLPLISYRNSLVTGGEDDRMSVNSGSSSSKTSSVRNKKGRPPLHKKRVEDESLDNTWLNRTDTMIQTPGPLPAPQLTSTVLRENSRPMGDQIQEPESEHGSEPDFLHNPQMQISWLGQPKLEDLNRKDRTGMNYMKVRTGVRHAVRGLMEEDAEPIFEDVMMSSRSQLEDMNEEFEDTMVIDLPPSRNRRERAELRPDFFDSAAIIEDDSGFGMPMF

[2] = target: T2, 10×His-tagged STAG2 (human) (UniProt Q8N3U4)
T2 sequence: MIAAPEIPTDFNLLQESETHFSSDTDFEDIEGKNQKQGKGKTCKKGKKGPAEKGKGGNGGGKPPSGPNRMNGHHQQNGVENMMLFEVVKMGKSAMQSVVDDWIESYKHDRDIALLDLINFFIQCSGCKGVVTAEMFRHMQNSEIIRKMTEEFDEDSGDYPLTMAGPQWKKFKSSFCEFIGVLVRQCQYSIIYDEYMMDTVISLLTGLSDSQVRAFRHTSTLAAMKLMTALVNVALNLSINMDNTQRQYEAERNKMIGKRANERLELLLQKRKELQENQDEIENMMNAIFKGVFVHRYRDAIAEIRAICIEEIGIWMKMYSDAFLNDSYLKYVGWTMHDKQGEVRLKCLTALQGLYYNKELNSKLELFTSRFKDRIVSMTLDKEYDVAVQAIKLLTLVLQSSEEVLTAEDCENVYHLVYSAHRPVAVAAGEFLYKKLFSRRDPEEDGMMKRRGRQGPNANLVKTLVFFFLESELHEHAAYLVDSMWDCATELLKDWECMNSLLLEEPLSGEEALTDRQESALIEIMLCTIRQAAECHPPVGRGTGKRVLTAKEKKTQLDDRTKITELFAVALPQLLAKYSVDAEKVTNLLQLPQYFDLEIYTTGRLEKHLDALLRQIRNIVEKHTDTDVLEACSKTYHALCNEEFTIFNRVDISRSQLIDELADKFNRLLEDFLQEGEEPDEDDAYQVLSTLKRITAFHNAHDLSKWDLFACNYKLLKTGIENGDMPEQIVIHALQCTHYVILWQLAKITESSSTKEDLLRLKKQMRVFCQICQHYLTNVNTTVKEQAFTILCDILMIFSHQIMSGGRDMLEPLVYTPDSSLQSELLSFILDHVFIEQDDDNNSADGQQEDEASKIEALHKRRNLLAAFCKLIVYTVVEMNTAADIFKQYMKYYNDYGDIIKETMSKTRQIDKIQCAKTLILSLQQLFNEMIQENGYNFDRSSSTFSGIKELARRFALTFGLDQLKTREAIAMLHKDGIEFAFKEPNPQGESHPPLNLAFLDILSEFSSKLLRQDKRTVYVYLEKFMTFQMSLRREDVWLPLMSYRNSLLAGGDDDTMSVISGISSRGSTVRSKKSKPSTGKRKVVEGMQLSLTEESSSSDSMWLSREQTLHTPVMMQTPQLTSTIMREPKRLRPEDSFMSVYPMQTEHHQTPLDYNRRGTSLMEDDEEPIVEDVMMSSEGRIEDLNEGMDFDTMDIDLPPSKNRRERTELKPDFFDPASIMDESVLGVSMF

[3] = target: FLAG-Halo-NIPBL-10×His (human) (UniProt Q6KC79)

Q: What does the source list for Smc3^FLAG (from UniProt Q9UQE7 1-1217)?
A: binding [1]: binds; binding [2]: binds

B1: Mau2 (protein, UniProt Q9Y6X3 1-613)
chain: MAAQAAAAAQAAAAQAAQAEAADSWYLALLGFAEHFRTSSPPKIRLCVHCLQAVFPFKPPQRIEARTHLQLGSVLYHHTKNSEQARSHLEKAWLISQQIPQFEDVKFEAASLLSELYCQENSVDAAKPLLRKAIQISQQTPYWHCRLLFQLAQLHTLEKDLVSACDLLGVGAEYARVVGSEYTRALFLLSKGMLLLMERKLQEVHPLLTLCGQIVENWQGNPIQKESLRVFFLVLQVTHYLDAGQVKSVKPCLKQLQQCIQTISTLHDDEILPSNPADLFHWLPKEHMCVLVYLVTVMHSMQAGYLEKAQKYTDKALMQLEKLKMLDCSPILSSFQVILLEHIIMCRLVTGHKATALQEISQVCQLCQQSPRLFSNHAAQLHTLLGLYCVSVNCMDNAEAQFTTALRLTNHQELWAFIVTNLASVYIREGNRHQEVLYSLLERINPDHSFPVSSHCLRAAAFYVRGLFSFFQGRYNEAKRFLRETLKMSNAEDLNRLTACSLVLLGHIFYVLGNHRESNNMVVPAMQLASKIPDMSVQLWSSALLRDLNKACGNAMDAHEAAQMHQNFSQQLLQDHIEACSLPEHNLITWTDGPPPVQFQAQNGPNTSLASLL
Q: B1 was tested. Which binding [3] did it give?
A: Its binding is “binds”.
